Measured values as given in publication PMC11237546.
These are yes or no findings as the source states them, for the method shown. In cells and extracts the contact can be indirect. Some results given as binding are weak or reduced against the parent protein; the word gives no strength.

By UniProt entry, the sequences of proteins in these tests, tags left out.
UniProt Q96EB6: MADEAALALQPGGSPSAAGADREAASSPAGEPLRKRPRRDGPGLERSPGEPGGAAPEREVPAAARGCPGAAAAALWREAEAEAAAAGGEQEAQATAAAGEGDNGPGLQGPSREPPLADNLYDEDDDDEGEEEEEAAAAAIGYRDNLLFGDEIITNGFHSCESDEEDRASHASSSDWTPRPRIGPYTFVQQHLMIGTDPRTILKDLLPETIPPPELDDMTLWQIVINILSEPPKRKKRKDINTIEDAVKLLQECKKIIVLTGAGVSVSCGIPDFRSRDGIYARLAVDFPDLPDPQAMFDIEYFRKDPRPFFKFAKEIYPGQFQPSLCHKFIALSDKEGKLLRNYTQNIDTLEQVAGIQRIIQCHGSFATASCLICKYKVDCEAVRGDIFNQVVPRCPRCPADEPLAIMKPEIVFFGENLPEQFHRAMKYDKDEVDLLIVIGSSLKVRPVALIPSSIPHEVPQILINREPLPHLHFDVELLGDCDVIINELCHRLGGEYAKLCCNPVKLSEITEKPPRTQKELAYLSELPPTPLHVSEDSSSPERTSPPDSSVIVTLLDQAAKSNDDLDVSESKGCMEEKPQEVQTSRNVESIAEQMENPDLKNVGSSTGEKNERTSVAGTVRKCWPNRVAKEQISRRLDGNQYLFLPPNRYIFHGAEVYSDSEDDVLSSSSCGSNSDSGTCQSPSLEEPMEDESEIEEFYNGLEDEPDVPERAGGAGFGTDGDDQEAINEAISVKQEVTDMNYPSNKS
UniProt O96017: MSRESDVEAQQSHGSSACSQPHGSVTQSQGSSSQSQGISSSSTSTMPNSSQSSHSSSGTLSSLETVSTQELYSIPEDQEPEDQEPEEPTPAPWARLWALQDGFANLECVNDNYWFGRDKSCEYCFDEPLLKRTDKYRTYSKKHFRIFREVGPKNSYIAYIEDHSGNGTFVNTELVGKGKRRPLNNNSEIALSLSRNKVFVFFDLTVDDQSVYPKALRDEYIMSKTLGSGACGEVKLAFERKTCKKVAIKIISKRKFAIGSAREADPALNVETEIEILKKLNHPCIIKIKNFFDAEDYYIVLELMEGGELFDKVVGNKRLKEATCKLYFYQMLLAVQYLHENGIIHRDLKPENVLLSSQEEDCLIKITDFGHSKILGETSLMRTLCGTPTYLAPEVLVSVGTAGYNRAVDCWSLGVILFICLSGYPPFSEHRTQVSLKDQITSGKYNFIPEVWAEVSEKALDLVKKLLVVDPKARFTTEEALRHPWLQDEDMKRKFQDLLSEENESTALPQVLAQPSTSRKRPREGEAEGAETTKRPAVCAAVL

Target: SIRT1 (human (endogenous in N/Tert-1, HFK and U2OS cells)) (UniProt Q96EB6)
Experiment: co-IP

Question: Which binding does the source give for “CHK2 (from UniProt O96017 1-543) (enzyme)” here?
Answer: binds
